Record: PubChem BioAssay AID1671195 (Yale University, 2021)

Assay: 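Genes whose knockdown alters LDL uptake in liver cancer cells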 (primary screen)
Cells: human Huh7 hepatoma cells
Knock-down reagent: siRNA pool against human genes, 18 nM
Timing: about 2 to 2.5 days of knockdown, then 8 h LDL uptake
Conditions: DiI-labelled LDL at 30 µg/ml for 8 h, in lipoprotein-deficient serum medium
Measurement: 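Per-cell DiI-LDL intensity by automated imaging; well means scaled to the plate median and given as a robust z-score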
Reading the numbers: robust z-score: higher = more LDL uptake after knockdown
Call rule: 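Active when two or more replicates show a robust z-score above 2 or below -2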
The whole screen tested about 22,000 reagents; this is a part drawn at random. About 1,510 of all reagents (6.9%) were called active. 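Active includes knockdowns raising or lowering LDL uptake; positive z-scores mean more uptake, negative mean less.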

Depletion of XCR1 came out at: robust z-score, replicate 1 = -0.742; robust z-score, replicate 2 = -1.45; robust z-score, replicate 3 = -1.22; inactive.
After knock-down of LRRC73, the screen gave robust z-score, replicate 1 = 1.59; robust z-score, replicate 2 = 1.69; robust z-score, replicate 3 = 1.44; inactive.
HHIPL2 gave robust z-score, replicate 1 = -1.49; robust z-score, replicate 2 = -1.53; robust z-score, replicate 3 = -1.05; inactive.
ANKZF1 scored robust z-score, replicate 1 = -1.62; robust z-score, replicate 2 = -0.547; robust z-score, replicate 3 = -1.52; inactive.
Against LOC441071 (retired record), the entry reads robust z-score, replicate 1 = -0.328; robust z-score, replicate 2 = -0.408; robust z-score, replicate 3 = -0.456; inactive.
Knock-down of FNIP1 gave: robust z-score, replicate 1 = -0.032; robust z-score, replicate 2 = 1.05; robust z-score, replicate 3 = 1.11; inactive.
S100A12 scored robust z-score, replicate 1 = 0.041; robust z-score, replicate 2 = 0.189; robust z-score, replicate 3 = 0.135; inactive.
With knock-down of RRP1 the results were robust z-score, replicate 1 = 0.746; robust z-score, replicate 2 = -1.36; robust z-score, replicate 3 = -0.657; inactive.
After knock-down of POLR2L, the record shows robust z-score, replicate 1 = -0.903; robust z-score, replicate 2 = -0.751; robust z-score, replicate 3 = -0.441; inactive.
HNF4G scored robust z-score, replicate 1 = 1.03; robust z-score, replicate 2 = 0.469; robust z-score, replicate 3 = 0.873; inactive.

Reformatted: results already given
Target gene,"robust z-score, replicate 1","robust z-score, replicate 2","robust z-score, replicate 3",Outcome
FNIP1,-0.032,1.05,1.11,inactive
S100A12,0.041,0.189,0.135,inactive

The list goes on.
After knock-down of INTS9 the results were robust z-score, replicate 1 = -0.531; robust z-score, replicate 2 = -2.55; robust z-score, replicate 3 = -0.791; inactive.
Silencing of C3orf36 resulted in: robust z-score, replicate 1 = 1.06; robust z-score, replicate 2 = 0.651; robust z-score, replicate 3 = 0.776; inactive.
VAV1 scored robust z-score, replicate 1 = -1.37; robust z-score, replicate 2 = -0.983; robust z-score, replicate 3 = -0.978; inactive.
ACAP1 scored robust z-score, replicate 1 = 1.39; robust z-score, replicate 2 = 0.938; robust z-score, replicate 3 = 0.811; inactive.
BRSK2 gave robust z-score, replicate 1 = 0.489; robust z-score, replicate 2 = -0.634; robust z-score, replicate 3 = -0.395; inactive.
For RPL38, the values are robust z-score, replicate 1 = -1.04; robust z-score, replicate 2 = -1.07; robust z-score, replicate 3 = -0.74; inactive.
For CCT6B, the values are robust z-score, replicate 1 = 0.102; robust z-score, replicate 2 = 0.26; robust z-score, replicate 3 = -0.0833; inactive.
Against DOK6, the entry reads robust z-score, replicate 1 = -0.252; robust z-score, replicate 2 = -0.076; robust z-score, replicate 3 = 0.0353; inactive.
With knock-down of SLC39A8, the record shows robust z-score, replicate 1 = -0.592; robust z-score, replicate 2 = -0.607; robust z-score, replicate 3 = -0.739; inactive.
DTNBP1 showed robust z-score, replicate 1 = -0.81; robust z-score, replicate 2 = -1.23; robust z-score, replicate 3 = -0.316; inactive.
Knock-down of NCF2 came out at: robust z-score, replicate 1 = -0.15; robust z-score, replicate 2 = 0.376; robust z-score, replicate 3 = 0.268; inactive.
After knock-down of SPMIP2, the record shows robust z-score, replicate 1 = -1.16; robust z-score, replicate 2 = -1.44; robust z-score, replicate 3 = -1.55; inactive.
After knock-down of LAMB1 the results were robust z-score, replicate 1 = -0.242; robust z-score, replicate 2 = -0.358; robust z-score, replicate 3 = -0.27; inactive.
For LOC440368 (retired record), the entry reads robust z-score, replicate 1 = -0.2; robust z-score, replicate 2 = 0.151; robust z-score, replicate 3 = -0.155; inactive.
